This assay has as its target Rho-associated coiled-coil containing protein kinase 2 (ROCK2) (human (endogenous in QBC-939)) (UniProt O75116). Put plainly: co-IP; QBC-939 cell lysate (RIPA); 1 mg protein with 2 ug primary antibody at 4 °C overnight, protein A/G beads 2 h at 4 °C, washed three times with RIPA; immunoblot. On the technique in general: A western blot detects proteins with antibodies after separation by electrophoresis.

The chains behind the UniProt entries cited, without tags or fusion partners.
UniProt O75116: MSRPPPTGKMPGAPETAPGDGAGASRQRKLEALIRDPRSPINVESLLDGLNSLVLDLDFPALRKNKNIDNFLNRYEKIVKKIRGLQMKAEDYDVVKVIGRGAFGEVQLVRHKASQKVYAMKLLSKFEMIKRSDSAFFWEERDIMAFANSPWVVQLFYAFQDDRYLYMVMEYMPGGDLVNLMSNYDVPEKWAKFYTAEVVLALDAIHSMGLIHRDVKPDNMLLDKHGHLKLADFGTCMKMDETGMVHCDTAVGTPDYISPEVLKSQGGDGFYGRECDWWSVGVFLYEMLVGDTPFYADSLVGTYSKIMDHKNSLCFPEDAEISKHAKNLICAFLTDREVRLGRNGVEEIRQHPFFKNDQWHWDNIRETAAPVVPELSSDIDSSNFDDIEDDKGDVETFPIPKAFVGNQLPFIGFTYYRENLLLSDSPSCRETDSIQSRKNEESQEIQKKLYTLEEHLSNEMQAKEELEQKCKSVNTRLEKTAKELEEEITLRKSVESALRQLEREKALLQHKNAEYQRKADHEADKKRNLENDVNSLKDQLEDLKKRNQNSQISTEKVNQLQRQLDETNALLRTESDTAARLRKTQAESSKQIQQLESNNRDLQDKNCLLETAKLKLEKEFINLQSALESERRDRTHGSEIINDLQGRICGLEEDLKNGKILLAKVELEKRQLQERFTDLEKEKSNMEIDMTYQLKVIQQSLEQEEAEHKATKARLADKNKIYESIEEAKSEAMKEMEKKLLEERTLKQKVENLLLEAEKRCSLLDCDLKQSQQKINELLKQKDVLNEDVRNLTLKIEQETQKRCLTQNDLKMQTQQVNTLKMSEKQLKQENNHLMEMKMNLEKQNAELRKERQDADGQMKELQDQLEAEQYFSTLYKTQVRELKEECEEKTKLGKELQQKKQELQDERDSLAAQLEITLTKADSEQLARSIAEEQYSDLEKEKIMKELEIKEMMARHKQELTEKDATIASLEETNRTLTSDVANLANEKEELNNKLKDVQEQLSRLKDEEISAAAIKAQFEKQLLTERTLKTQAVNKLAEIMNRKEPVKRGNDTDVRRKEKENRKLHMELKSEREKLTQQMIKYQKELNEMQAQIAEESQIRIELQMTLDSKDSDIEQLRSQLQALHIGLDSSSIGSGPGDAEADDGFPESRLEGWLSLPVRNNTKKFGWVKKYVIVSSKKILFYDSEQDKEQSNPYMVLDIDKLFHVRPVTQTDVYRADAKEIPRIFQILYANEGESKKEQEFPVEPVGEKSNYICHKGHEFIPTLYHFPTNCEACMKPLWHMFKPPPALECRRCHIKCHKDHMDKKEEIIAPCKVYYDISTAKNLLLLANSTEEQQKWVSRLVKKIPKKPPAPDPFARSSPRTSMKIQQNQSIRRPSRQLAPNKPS

No constants are given. Whether binding was seen depends on the method and setting. Binding seen in cells or lysates may run through a third protein.

Consider “dynamin-related protein 1 (Drp1) (from UniProt O00429 1-736)”, for which the binding result is reported as “no binding”.

The record behind these values is paper PMC12227600.
